“Also recorded” adds a separate entry of the source.
Key:
[1] = test system: buspirone N-dealkylation (formation of 1-PP); test: in vitro; conditions: rat, rat liver microsomes, probe buspirone 50 μM
[2] = test system: buspirone 6′-hydroxylation (formation of 6′-OH buspirone); test: in vitro; conditions: rat, rat liver microsomes, probe buspirone 50 μM
[3] = test system: rat liver microsomes (RLMs); conditions: axitinib 100 μM
[4] = test system: rat liver microsomes (RLMs); test: Enzymatic kinetics of axitinib inhibition of buspirone metabolism in RLMs; format: in vitro ADME

IC50 at 40 min [1]: 9.74 µM
IC50 at 40 min [2]: 15.8 µM
inhibition of buspirone N-dealkylation [3]: 98.4%
inhibition of buspirone metabolism, 6′-hydroxylation pathway [3]: 97.4%
Ki ([4]; buspirone N-dealkylation, axitinib 0–30 μM): 2.61 µM
Compound: CNC(=O)c1ccccc1Sc1ccc2c(/C=C/c3ccccn3)n[nH]c2c1 [axitinib]
inhibition pattern ([4]; 6′-hydroxylation and N-dealkylation, Lineweaver–Burk plot): noncompetitive inhibition; also recorded: noncompetitive inhibitor

Source: article PMC9252588 (Drug Design, Development and Therapy, 2022)
